Experimental findings from PMC3814328 are described below.

Protein sequences, listed by entry. Tags and fused reporters are not part of them. Lines headed by an entry give the natural chain unless they say otherwise; changes in a name come on top.
UniProt C4Y434: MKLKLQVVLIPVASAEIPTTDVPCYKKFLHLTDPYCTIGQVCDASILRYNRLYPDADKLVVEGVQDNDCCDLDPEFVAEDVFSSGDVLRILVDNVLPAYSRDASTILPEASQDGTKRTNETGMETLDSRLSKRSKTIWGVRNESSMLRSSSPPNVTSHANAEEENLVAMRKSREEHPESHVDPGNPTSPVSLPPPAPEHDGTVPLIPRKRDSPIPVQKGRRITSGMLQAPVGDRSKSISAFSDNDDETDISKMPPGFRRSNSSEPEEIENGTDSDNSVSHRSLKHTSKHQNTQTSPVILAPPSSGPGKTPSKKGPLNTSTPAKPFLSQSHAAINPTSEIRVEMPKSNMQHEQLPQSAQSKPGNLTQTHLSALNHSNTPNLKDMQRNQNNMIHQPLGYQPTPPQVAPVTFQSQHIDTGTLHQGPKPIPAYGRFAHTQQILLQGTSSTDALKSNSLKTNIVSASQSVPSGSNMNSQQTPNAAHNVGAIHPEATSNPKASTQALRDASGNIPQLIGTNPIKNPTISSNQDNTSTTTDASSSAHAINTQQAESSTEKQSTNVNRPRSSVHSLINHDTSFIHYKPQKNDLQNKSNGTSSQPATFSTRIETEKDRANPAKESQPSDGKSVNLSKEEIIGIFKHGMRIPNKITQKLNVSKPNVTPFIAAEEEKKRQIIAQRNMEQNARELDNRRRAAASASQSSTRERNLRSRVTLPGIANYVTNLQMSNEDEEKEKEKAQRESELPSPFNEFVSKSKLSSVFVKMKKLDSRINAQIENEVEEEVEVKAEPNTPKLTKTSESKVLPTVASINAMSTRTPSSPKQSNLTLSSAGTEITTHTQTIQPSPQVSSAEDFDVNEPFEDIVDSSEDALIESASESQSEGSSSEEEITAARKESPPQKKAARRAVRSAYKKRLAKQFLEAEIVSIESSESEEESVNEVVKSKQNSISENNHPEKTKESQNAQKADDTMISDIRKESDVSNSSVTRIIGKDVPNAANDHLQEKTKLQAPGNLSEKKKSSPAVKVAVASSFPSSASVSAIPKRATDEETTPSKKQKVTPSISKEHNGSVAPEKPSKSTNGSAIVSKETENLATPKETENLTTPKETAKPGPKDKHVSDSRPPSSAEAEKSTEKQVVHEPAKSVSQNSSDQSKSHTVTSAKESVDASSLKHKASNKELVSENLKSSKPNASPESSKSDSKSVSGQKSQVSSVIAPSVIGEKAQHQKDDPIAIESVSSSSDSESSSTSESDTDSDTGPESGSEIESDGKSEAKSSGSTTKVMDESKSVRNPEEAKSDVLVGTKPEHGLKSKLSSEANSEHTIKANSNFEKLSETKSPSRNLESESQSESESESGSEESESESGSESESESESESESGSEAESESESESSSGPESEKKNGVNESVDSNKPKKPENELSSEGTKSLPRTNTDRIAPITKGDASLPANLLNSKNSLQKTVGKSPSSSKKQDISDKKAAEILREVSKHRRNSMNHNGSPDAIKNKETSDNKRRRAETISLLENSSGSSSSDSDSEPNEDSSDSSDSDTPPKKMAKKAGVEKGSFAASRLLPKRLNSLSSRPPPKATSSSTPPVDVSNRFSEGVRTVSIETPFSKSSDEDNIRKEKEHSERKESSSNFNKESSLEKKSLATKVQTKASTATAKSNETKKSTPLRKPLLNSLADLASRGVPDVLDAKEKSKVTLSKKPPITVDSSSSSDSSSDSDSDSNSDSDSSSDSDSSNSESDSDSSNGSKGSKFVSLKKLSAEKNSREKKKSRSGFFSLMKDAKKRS

Results are given in words; binding and its absence hold for the method and conditions named. In cells and extracts the contact can be indirect. A yes stands for co-enrichment or nearness to the bait. Other partners may have been found.

The test concerns the target Myc-tagged ClHst1 (product of CLUG_01277, Sir2 ortholog of Clavispora lusitaniae) (Clavispora lusitaniae) (UniProt C4XZ95). As to the kind of experiment: affinity purification with mass spectrometry; myc-tagged ClHst1 partially purified from clarified C. lusitaniae lysate on anti-c-myc agarose resin, overnight at 4°C; lysis buffer 50 mM HEPES-KOH pH 7.5, 0.5 M NaCl, 10% glycerol, 0.5% NP-40, 1 mM EDTA; lysate treated with heparin and benzonase; SDS-PAGE gel slices analysed by LC-MS/MS; untagged strain as negative control.

On to “ClNet1 (product of CLUG_02406, similar to ScNet1) (from UniProt C4Y434)”, for which the binding result is on record as “binds”.
